The whole screen tested about 210,000 compounds, of which about 5,900 (2.8%) were called active. Another 5% or so got no clear call; they are omitted. The call rests on the fitted dose curve; in most records, active means well fitted activation curve with a large enough effect; inconclusive means small, poorly fitted or top-dose-only effect; inactive means no such curve, though single readings can be large or run the other way. The entries are a selection whose mix differs from that of the whole data set. Where no call is shown, the source filed none.
Potency means the concentration at half of the fitted maximal effect.

A short description of this assay: qHTS Assay for Enhancers of SMN2 Splice Variant Expression. Further: nearly all actives have a fitted effect of over 55% in size. On activity change, positive = activation: % of control where 0% means no effect. As to conditions: HEK293 SMN2-luciferase splicing reporter, luminescence, 30-36 h; activity change, positive = activation: at 46.1 µM (top of the series) unless noted. In outline: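 qHTS luciferase splicing reporter: luminescence rises when SMN2 exon 7 is included in transfected HEK293 cells. Compound exposure lasted 30-36 h at 37C, with 4.5 mM final sodium butyrate as control, followed by a ONE-Glo read.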
A general note: qHTS replaces the single test concentration by a dilution series.
For the compound `Cc1ccc(CNc2ccc3c(c2)ncn3C)cc1`, the Potency was active: 17.8 µM.

As for `CCOc1ccc(NS(=O)(=O)c2cc(OCC(N)=O)c(C)cc2Cl)cc1`, the activity change, positive = activation is -50.2%.

Turning to `Cc1ccccc1C1CC(c2ccccc2OC(F)F)Nc2ncnn21` (stereo unspecified), the activity change, positive = activation is 36.5%. On the same count and under the same terms, the same measure for `CNS(=O)(=O)c1ccccc1C(=N)c1ccccc1`: 23% [at 9.22 µM]; for `C=CCOc1ccc2c(c1)C(=NO)c1cc(OCC=C)ccc1-2`: inactive: -34%; for `NC(=O)Nc1ccccc1C(=O)NCCc1ccccc1`: 33.9%. The same measure, in the same setting: the same measure for `COc1cccc(CNC(=O)CCC2CCCN(Cc3cc4ccccc4o3)C2)c1` (stereo unspecified): inactive: -39.4%.

With `Cn1nnnc1SCC(=O)Nc1nc2c(s1)CCCC2`, the activity change, positive = activation amounted to 146%. In the case of `COC(=O)N1C(C)=Cc2ccccc2C1CC(C)=O` (stereo unspecified), the Potency result was “inactive”. As to `C=CCNC(=S)N/N=C/c1ccc(N(CC)Cc2ccccc2)cc1`, the activity change, positive = activation is -32.3%.

As to `O=C(O)C1CCCCC1C(=O)Nc1ccc2c(c1)CCC2` (stereo unspecified), the activity change, positive = activation was 23%. For the compound `CCc1ccc(NC2Nc3cc(C)nn3S2)cc1` (stereo unspecified), the Potency is active: 11.2 µM. Consider `COCCCNC(=O)Cn1nnc(-c2ccc(NC(=O)c3ccc(F)cc3)cc2)n1`, for which the activity change, positive = activation was 38.4%. In the case of `COc1ccccc1/C=C/C(=O)NCCC1=CCCCC1`, the Potency was active: 11.2 µM. For `Cc1ccc(NC(=O)c2ccc3c(c2)OCCO3)cc1S(=O)(=O)Nc1cccc(Cl)c1`, the activity change, positive = activation was -98.9%.

Consider `O=C(CCCOc1ccccc1)Nc1nc2ccccc2[nH]1`, for which the activity change, positive = activation was found to be 125%. Take `Cc1ccc(NC(=O)c2ccco2)c([N+](=O)[O-])c1`: the Potency is active: 22.4 µM. Still for that read-out and setting: the same measure for `CCc1nnc(NC(=O)c2c(O)c3c([nH]c2=O)CCCC3)s1`: active: 14.1 µM.

As to `CCN1CCN(Cc2coc3ccc(C)cc3c2=O)CC1`, the activity change, positive = activation was 32.1%. On the same count and under the same terms, the same measure for `Cc1ccc(CC23CN4CCN(CC(C4)C2O)C3)c(C)c1` (stereo unspecified): 45%. For the compound `CCCCOC(=O)Nc1ccc(N2CCOCC2)cc1`, the Potency is active: 11.2 µM. On the same count and under the same terms, in the case of `CCOC(=O)CSc1nc2cc(OCC)ccc2cc1C#N` it was active: 22.4 µM. For `CCOc1nc(-c2ccc(C)cc2)ccc1-c1noc(-c2cccnc2)n1`, the activity change, positive = activation came out at 38%. Take `Cc1ccc(NC(=O)NC(=O)N(C2CCCCC2)S(=O)(=O)c2ccccc2)cc1`: the Potency was active: 7.94 µM. Consider `CC(C)CNC(=S)NC(=O)c1ccc(Cl)cc1`, for which the activity change, positive = activation came out at 173%.

For `COc1ccc(C(=O)N=c2sc3ccccc3n2C)cc1`, the Potency was active: 2.51 µM. With `CCCCCCn1ccc(=N)cc1`, the “activity change, positive = activation” value was inactive: -64.8%. Same read-out and setting: in the case of `O=c1[nH]c(SCc2cccc(Cl)c2)nc2[nH]ncc12` it was 45.6%; in that of `O=C(CN1CCN(CC(=O)c2ccc(F)cc2)CC1)Nc1ccccc1Cl`, 17.8%. On to `COc1ccc(C(=O)Cn2c(C(=O)/C=C/c3ccccc3)nc3ccccc32)cc1`, for which the activity change, positive = activation was -50.4%. Take `CC(=O)c1cccc(NC(=O)C=C(C)C)c1`: the activity change, positive = activation was 18.8%. Still for that read-out and setting: the same measure for `CN(C)S(=O)(=O)c1ccc(Cl)c(NC(=O)CN2CCC(Cc3ccccc3)CC2)c1`: inactive: -39.5%. As to `CCOC(=O)c1ccc2nc(NC(=O)c3cccs3)sc2c1`, the Potency was active: 3.98 µM. Consider `CC(CN1CCCCC1)OC(=O)C1c2ccccc2Oc2ccccc21` (stereo unspecified), for which the activity change, positive = activation stood at 70.7%. `COc1ccc(NC(=O)C2CCCO2)cc1Cl` (stereo unspecified): the activity change, positive = activation was found to be 51.7%. `CN(C)S(=O)(=O)c1ccc2oc(SCC(=O)Nc3ccccc3F)nc2c1`: the Potency is active: 11.2 µM. On to `Cc1nnc(Sc2nc3ccccc3o2)c2ccccc12`, for which the activity change, positive = activation is 44.4%. The same measure, in the same setting: the same measure for `COC(=O)Nc1ccc2c(c1)N(C(=O)CCN1CCOCC1)c1ccccc1S2`: 38.8%; for `NS(=O)(=O)c1cccnc1Nc1c(Cl)cccc1Cl`: 32.5%; for `CC1CC2=C(C(=O)O1)C(c1ccccc1)Nc1ccccc1N2` (stereo unspecified): 31%. Turning to `O=C(/C=C/c1ccc([N+](=O)[O-])cc1)Nc1ncc([N+](=O)[O-])s1`, the Potency was active: 0.501 µM. Take `CN(C)S(=O)(=O)N1CCN(S(=O)(=O)c2ccc(F)cc2)CC1`: the activity change, positive = activation is 48.5%. The same measure, in the same setting: the same measure for `Cc1cc(C(=O)N/N=C2\CC(=O)CC(C)(C)C2)c(C)n1-c1ccccc1`: inactive: -48.5%. On the same count and under the same terms, the same measure for `O=S1(=O)C=C(Oc2ccc3ccccc3c2)c2ccccc21`: -38.6%. In the case of `Cc1ccccc1-c1nnn(CC(=O)Nc2ccc3c(c2)OCCO3)n1`, the activity change, positive = activation stood at 6.49%. Still for that read-out and setting: the same measure for `Cc1ccc(NC2=C/C(=N/S(=O)(=O)c3cccs3)c3ccccc3C2=O)cc1`: -108%; for `Cc1cccc(NC(=O)c2onc3c2CCCC3)n1`: -9.1%. `O=C(Nc1nc(-c2cccs2)cs1)C1=COCCO1`: the Potency was active: 12.6 µM. With `Cc1cc(=O)n2cc(-c3ccccc3)nc2[nH]1`, the activity change, positive = activation stood at 59.2%. Still for that read-out and setting: the same measure for `CCCn1c(CNc2ccc(Br)cc2)nc2ccccc21`: inactive: -39.2%. Take `Cc1nc2ccccc2n1CC(=O)NC(C)C1CC2CCC1C2` (stereo unspecified): the “activity change, positive = activation” value is inactive: -48.4%.

In the case of `CCOc1ccc(S(=O)(=O)NCc2ccco2)c2ccccc12`, the activity change, positive = activation came out at 33.9%. Same read-out and setting: in the case of `CCCCc1ccc(NC(=O)CC(C)(C)C)cc1` it was 151%; in that of `COc1ccc(CC2S/C(=C(\C#N)C(=O)NCc3ccco3)N(c3ccc(C)cc3)C2=O)cc1` (stereo unspecified), 35.2%.

Turning to `c1ccc2c(CCNc3ncnc4nc[nH]c34)cccc2c1`, the “activity change, positive = activation” value is inactive: -61.7%. The same measure, in the same setting: the same measure for `O=C(O)CCCCCNC(=O)Nc1ccc2c(c1)OCCO2`: 31.5%.

Source of the values: PubChem BioAssay AID1458 (National Center for Advancing Translational Sciences (NCATS), 2008).
